{"sequences": {"note": "Sequences of proteins named here, by UniProt entry; tags and fusion partners are left off.", "AHSA1, O95433, UniProt O95433, whole entry": "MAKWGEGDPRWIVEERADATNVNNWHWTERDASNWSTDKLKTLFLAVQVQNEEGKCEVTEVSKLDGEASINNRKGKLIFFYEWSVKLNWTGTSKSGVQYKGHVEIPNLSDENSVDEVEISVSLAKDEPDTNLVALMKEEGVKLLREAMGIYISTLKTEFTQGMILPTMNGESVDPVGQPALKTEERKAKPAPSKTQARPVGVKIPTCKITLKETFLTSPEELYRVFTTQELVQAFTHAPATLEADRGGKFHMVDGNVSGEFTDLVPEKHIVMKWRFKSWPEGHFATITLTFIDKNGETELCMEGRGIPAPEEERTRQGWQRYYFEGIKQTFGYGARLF", "AP2A2, O94973, UniProt O94973, whole entry": "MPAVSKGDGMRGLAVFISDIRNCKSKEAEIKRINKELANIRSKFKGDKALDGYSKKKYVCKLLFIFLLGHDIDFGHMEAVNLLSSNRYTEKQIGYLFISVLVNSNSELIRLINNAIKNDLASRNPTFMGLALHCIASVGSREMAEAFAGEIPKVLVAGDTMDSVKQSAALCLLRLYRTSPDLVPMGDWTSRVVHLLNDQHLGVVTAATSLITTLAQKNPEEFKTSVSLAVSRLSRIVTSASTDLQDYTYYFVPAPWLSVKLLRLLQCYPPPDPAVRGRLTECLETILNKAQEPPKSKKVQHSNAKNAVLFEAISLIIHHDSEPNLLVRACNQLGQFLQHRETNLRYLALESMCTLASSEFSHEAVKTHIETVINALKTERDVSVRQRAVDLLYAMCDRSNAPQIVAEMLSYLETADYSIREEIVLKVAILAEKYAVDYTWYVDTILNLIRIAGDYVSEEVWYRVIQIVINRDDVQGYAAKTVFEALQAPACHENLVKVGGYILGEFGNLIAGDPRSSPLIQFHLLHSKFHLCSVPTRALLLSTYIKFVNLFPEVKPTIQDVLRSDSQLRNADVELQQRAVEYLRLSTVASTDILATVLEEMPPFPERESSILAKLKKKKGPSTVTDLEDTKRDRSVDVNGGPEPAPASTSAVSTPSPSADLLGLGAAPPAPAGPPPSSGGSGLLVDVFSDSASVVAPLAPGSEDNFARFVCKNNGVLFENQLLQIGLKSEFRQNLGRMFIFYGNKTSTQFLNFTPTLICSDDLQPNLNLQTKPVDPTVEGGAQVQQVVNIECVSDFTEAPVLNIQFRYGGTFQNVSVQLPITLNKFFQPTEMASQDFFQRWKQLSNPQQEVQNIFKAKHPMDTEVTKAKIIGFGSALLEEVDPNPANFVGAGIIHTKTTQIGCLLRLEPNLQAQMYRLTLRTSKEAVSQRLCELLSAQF", "ATXN2, Q99700, UniProt Q99700, whole entry": "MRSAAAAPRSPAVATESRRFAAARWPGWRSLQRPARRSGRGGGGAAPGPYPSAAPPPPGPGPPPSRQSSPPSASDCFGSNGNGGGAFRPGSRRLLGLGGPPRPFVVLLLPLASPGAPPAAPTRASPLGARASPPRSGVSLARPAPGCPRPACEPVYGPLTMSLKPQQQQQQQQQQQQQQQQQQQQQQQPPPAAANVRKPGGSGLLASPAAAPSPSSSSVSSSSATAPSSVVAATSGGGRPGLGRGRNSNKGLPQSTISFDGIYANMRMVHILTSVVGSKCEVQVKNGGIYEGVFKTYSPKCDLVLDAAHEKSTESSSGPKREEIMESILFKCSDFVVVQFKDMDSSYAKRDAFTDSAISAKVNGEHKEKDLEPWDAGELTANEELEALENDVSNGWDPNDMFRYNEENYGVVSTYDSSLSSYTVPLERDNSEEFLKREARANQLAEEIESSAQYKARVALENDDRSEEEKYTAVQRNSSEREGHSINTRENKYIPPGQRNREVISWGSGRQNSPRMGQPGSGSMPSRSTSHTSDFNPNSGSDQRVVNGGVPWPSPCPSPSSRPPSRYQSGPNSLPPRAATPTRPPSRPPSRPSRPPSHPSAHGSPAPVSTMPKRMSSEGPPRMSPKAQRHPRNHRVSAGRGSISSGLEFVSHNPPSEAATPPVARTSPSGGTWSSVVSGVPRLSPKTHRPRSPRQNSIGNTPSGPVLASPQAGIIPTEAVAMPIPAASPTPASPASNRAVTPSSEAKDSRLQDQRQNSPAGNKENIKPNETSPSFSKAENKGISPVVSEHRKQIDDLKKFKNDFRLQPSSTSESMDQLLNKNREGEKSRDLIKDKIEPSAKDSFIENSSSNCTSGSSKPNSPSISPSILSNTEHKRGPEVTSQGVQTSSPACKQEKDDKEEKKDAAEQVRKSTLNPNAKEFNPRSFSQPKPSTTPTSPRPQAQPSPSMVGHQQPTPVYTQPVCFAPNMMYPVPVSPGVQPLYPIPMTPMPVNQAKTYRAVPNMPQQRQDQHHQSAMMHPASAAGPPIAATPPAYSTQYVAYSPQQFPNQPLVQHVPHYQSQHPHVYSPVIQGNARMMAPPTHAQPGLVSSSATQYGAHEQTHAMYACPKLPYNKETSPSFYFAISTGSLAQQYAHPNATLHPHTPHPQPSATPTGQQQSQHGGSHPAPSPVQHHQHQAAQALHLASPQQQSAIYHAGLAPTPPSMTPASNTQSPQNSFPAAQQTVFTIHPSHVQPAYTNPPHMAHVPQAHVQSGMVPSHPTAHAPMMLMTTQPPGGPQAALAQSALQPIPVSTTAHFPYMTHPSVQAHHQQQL", "CHMP2B, Q9UQN3, UniProt Q9UQN3, whole entry": "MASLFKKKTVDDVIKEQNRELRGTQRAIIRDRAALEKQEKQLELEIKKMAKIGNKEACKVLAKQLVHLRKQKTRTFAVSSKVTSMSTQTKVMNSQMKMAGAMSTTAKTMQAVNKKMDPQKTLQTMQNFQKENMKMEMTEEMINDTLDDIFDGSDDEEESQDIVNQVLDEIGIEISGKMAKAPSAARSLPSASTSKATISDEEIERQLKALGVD", "CKS1B, P61024, UniProt P61024, whole entry": "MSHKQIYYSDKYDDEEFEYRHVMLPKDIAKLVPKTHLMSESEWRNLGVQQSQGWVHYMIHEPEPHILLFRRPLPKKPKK", "CKS2, P33552, UniProt P33552, whole entry": "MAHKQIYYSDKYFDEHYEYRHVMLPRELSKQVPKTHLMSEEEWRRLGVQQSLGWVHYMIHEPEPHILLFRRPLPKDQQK", "COX6B1, P14854, UniProt P14854, whole entry": "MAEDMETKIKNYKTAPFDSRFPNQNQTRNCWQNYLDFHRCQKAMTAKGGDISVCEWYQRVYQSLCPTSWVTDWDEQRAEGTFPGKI"}, "source": "the supplement of paper PMC10032668", "assay_in_all_cases": "PRISMA enrichment of interactor (LFQ) in peptide spot vs all other peptide spots (log2 fold change); higher = stronger / more specific binding of the interactor to the peptide", "key": {"ACAA1, P09110": {"molecular_target": "ACAA1, P09110", "method": "(§1)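 PRISMA: 221 full-length sORF-encoded peptides (3-15 aa), plus SOS1/GLUT1 control peptides, were spot-synthesized on cellulose membranes in triplicate. Membranes were incubated with HEK293T lysate, and bound proteins were identified by LC-MS/MS with LFQ. Enrichment is the log2 fold change versus all other peptide spots; only significant interactors are listed (cutoff c=6, x0=2.8).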"}, "ACOT13, Q9NPJ3": {"molecular_target": "ACOT13, Q9NPJ3", "method": "as §1"}, "ACOT7, O00154": {"molecular_target": "ACOT7, O00154", "method": "as §1"}, "AHSA1, O95433": {"molecular_target": "AHSA1, O95433", "method": "as §1"}, "ALKBH5, Q6P6C2": {"molecular_target": "ALKBH5, Q6P6C2", "method": "as §1"}, "ALYREF, Q86V81": {"molecular_target": "ALYREF, Q86V81", "method": "as §1"}, "ANXA7, P20073": {"molecular_target": "ANXA7, P20073", "method": "as §1"}, "AP1B1, Q10567": {"molecular_target": "AP1B1, Q10567", "method": "as §1"}, "AP2A1, O95782": {"molecular_target": "AP2A1, O95782", "method": "as §1"}, "AP2A2, O94973": {"molecular_target": "AP2A2, O94973", "method": "as §1"}, "AP2B1, P63010": {"molecular_target": "AP2B1, P63010", "method": "as §1"}, "AP2M1, Q96CW1": {"molecular_target": "AP2M1, Q96CW1", "method": "as §1"}, "AP2S1, P53680": {"molecular_target": "AP2S1, P53680", "method": "as §1"}, "ARCN1, P48444": {"molecular_target": "ARCN1, P48444", "method": "as §1"}, "ATXN2, Q99700": {"molecular_target": "ATXN2, Q99700", "method": "as §1"}, "ATXN2L, Q8WWM7": {"molecular_target": "ATXN2L, Q8WWM7", "method": "as §1"}, "BAIAP2, Q9UQB8": {"molecular_target": "BAIAP2, Q9UQB8", "method": "as §1"}, "BOLA3, Q53S33": {"molecular_target": "BOLA3, Q53S33", "method": "as §1"}, "C19orf53, Q9UNZ5": {"molecular_target": "C19orf53, Q9UNZ5", "method": "as §1"}, "C1orf131, Q8NDD1": {"molecular_target": "C1orf131, Q8NDD1", "method": "as §1"}, "C20orf27, Q9GZN8": {"molecular_target": "C20orf27, Q9GZN8", "method": "as §1"}, "CC2D1A, Q6P1N0": {"molecular_target": "CC2D1A, Q6P1N0", "method": "as §1"}, "CCDC137, Q6PK04": {"molecular_target": "CCDC137, Q6PK04", "method": "as §1"}, "CCDC58, Q4VC31": {"molecular_target": "CCDC58, Q4VC31", "method": "as §1"}, "CCDC59, Q9P031": {"molecular_target": "CCDC59, Q9P031", "method": "as §1"}, "CDC73, Q6P1J9": {"molecular_target": "CDC73, Q6P1J9", "method": "as §1"}, "CGGBP1, Q9UFW8": {"molecular_target": "CGGBP1, Q9UFW8", "method": "as §1"}, "CHCHD7, Q9BUK0": {"molecular_target": "CHCHD7, Q9BUK0", "method": "as §1"}, "CHMP2A, O43633": {"molecular_target": "CHMP2A, O43633", "method": "as §1"}, "CHMP2B, Q9UQN3": {"molecular_target": "CHMP2B, Q9UQN3", "method": "as §1"}, "CHTOP, Q9Y3Y2": {"molecular_target": "CHTOP, Q9Y3Y2", "method": "as §1"}, "CKS1B, P61024": {"molecular_target": "CKS1B, P61024", "method": "as §1"}, "CKS2, P33552": {"molecular_target": "CKS2, P33552", "method": "as §1"}, "COA7, Q96BR5": {"molecular_target": "COA7, Q96BR5", "method": "as §1"}, "COX6B1, P14854": {"molecular_target": "COX6B1, P14854", "method": "as §1"}, "CPSF7, Q8N684": {"molecular_target": "CPSF7, Q8N684", "method": "as §1"}, "CSNK1A1, P48729": {"molecular_target": "CSNK1A1, P48729", "method": "as §1"}, "CSNK1E, P49674": {"molecular_target": "CSNK1E, P49674", "method": "as §1"}, "CSRP2, Q16527": {"molecular_target": "CSRP2, Q16527", "method": "as §1"}, "CSTF3, Q12996": {"molecular_target": "CSTF3, Q12996", "method": "as §1"}, "CXorf56, Q9H5V9": {"molecular_target": "CXorf56, Q9H5V9", "method": "as §1"}}, "note": "Some of the results follow. Only hits are listed; about a third recur on repeated control peptides."}
{"binder": "MMFWTEF", "note": "[SH3D19]", "values": [{"measurement": "PRISMA enrichment of interactor (log2)", "setting": "ACAA1, P09110", "value": 3.94}, {"measurement": "PRISMA enrichment of interactor (log2)", "setting": "ACOT13, Q9NPJ3", "value": 5.38}, {"measurement": "PRISMA enrichment of interactor (log2)", "setting": "ACOT7, O00154", "value": 5.17}, {"measurement": "PRISMA enrichment of interactor (log2)", "setting": "AHSA1, O95433", "value": 5.11}, {"measurement": "PRISMA enrichment of interactor (log2)", "setting": "ALKBH5, Q6P6C2", "value": 4.87}, {"measurement": "PRISMA enrichment of interactor (log2)", "setting": "ALYREF, Q86V81", "value": 4.97}, {"measurement": "PRISMA enrichment of interactor (log2)", "setting": "ANXA7, P20073", "value": 4.3}, {"measurement": "PRISMA enrichment of interactor (log2)", "setting": "AP1B1, Q10567", "value": 5.74}, {"measurement": "PRISMA enrichment of interactor (log2)", "setting": "AP2A1, O95782", "value": 8.94}, {"measurement": "PRISMA enrichment of interactor (log2)", "setting": "AP2A2, O94973", "value": 8.43}, {"measurement": "PRISMA enrichment of interactor (log2)", "setting": "AP2B1, P63010", "value": 8.46}, {"measurement": "PRISMA enrichment of interactor (log2)", "setting": "AP2M1, Q96CW1", "value": 7.65}, {"measurement": "PRISMA enrichment of interactor (log2)", "setting": "AP2S1, P53680", "value": 5.87}, {"measurement": "PRISMA enrichment of interactor (log2)", "setting": "ARCN1, P48444", "value": 5.75}, {"measurement": "PRISMA enrichment of interactor (log2)", "setting": "ATXN2, Q99700", "value": 5.05}, {"measurement": "PRISMA enrichment of interactor (log2)", "setting": "ATXN2L, Q8WWM7", "value": 5.79}, {"measurement": "PRISMA enrichment of interactor (log2)", "setting": "BAIAP2, Q9UQB8", "value": 5.31}, {"measurement": "PRISMA enrichment of interactor (log2)", "setting": "BOLA3, Q53S33", "value": 4.96}, {"measurement": "PRISMA enrichment of interactor (log2)", "setting": "C19orf53, Q9UNZ5", "value": 6.54}, {"measurement": "PRISMA enrichment of interactor (log2)", "setting": "C1orf131, Q8NDD1", "value": 4.29}, {"measurement": "PRISMA enrichment of interactor (log2)", "setting": "C20orf27, Q9GZN8", "value": 3.74}, {"measurement": "PRISMA enrichment of interactor (log2)", "setting": "CC2D1A, Q6P1N0", "value": 7.58}, {"measurement": "PRISMA enrichment of interactor (log2)", "setting": "CCDC137, Q6PK04", "value": 5.55}, {"measurement": "PRISMA enrichment of interactor (log2)", "setting": "CCDC58, Q4VC31", "value": 4.96}, {"measurement": "PRISMA enrichment of interactor (log2)", "setting": "CCDC59, Q9P031", "value": 4.57}, {"measurement": "PRISMA enrichment of interactor (log2)", "setting": "CDC73, Q6P1J9", "value": 5.36}, {"measurement": "PRISMA enrichment of interactor (log2)", "setting": "CGGBP1, Q9UFW8", "value": 4.62}, {"measurement": "PRISMA enrichment of interactor (log2)", "setting": "CHCHD7, Q9BUK0", "value": 4.27}, {"measurement": "PRISMA enrichment of interactor (log2)", "setting": "CHMP2A, O43633", "value": 7.65}, {"measurement": "PRISMA enrichment of interactor (log2)", "setting": "CHMP2B, Q9UQN3", "value": 6.28}, {"measurement": "PRISMA enrichment of interactor (log2)", "setting": "CHTOP, Q9Y3Y2", "value": 5.31}, {"measurement": "PRISMA enrichment of interactor (log2)", "setting": "CKS1B, P61024", "value": 4.86}, {"measurement": "PRISMA enrichment of interactor (log2)", "setting": "CKS2, P33552", "value": 5.31}, {"measurement": "PRISMA enrichment of interactor (log2)", "setting": "COA7, Q96BR5", "value": 4.69}, {"measurement": "PRISMA enrichment of interactor (log2)", "setting": "COX6B1, P14854", "value": 4.93}, {"measurement": "PRISMA enrichment of interactor (log2)", "setting": "CPSF7, Q8N684", "value": 6.14}, {"measurement": "PRISMA enrichment of interactor (log2)", "setting": "CSNK1A1, P48729", "value": 6.37}, {"measurement": "PRISMA enrichment of interactor (log2)", "setting": "CSNK1E, P49674", "value": 7.21}, {"measurement": "PRISMA enrichment of interactor (log2)", "setting": "CSRP2, Q16527", "value": 7.51}, {"measurement": "PRISMA enrichment of interactor (log2)", "setting": "CSTF3, Q12996", "value": 3.87}, {"measurement": "PRISMA enrichment of interactor (log2)", "setting": "CXorf56, Q9H5V9", "value": 6.97}]}
